PubChem BioAssay AID1487 (National Center for Advancing Translational Sciences (NCATS), 2009)
The other results are listed elsewhere or left out. The main result of the screen is listed elsewhere. These columns were measured beside it and carry no call. Compounds called inactive in the main read-out are mostly missing here. The note in brackets gives the kind of curve behind each potency; many fits are weak.

Assay: qHTS Assay for Modulators of Lamin A Splicing
Settings: HeLa LMNA splicing GFP/RFP minigene ratio, 48 h
Method in brief: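 S3 HeLa stable clones carrying a lamin A-EGFP splicing minigene plus DsRed2 were seeded at 600 cells/well in Opti-MEM with 2% FBS, pin-dosed and incubated 48 h at 37°C. Acumen cytometry (488 nm) gave the GFP/RFP total-intensity ratio.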

[1] = measured here: GFP splicing reporter channel
[2] = measured here: RFP viability control channel

Row | SMILES | AC50 [1] | AC50 [2]
1 | N.N.O=C(O)C1(C(=O)O)CCC1.[Pt] | 0.00562 µM [falling, full curve, poor fit] | 35.5 µM [falling, single point]
2 | COc1ccccc1N1CCN(C(=O)c2cccc3c(=O)c(C)c(-c4ccccc4)oc23)CC1 | – | 0.2 µM [rising, full curve, poor fit]
3 | CCOC(=O)N(C)c1ccc(C(O)(C(F)(F)F)C(F)(F)F)cc1 | 10 µM [rising, partial curve] | 4.47 µM [rising, partial curve, poor fit]
4 | CCOC(=O)/C=C/C(=O)Nc1ccc(S(=O)(=O)Nc2c(C)cc(C)cc2C)cc1 | – | 35.5 µM [rising, single point]
5 | Cc1ccccc1OCc1ccc(-c2nc(C#N)c(NCc3cccnc3)o2)o1 | – | 12.6 µM [rising, single point]
6 | CC1=C(c2ccc(C)c(C)c2)S(=O)(=O)N=C1N1CCC(C(=O)N2CCC(C)CC2)CC1 | 0.112 µM [rising, full curve, poor fit] | 0.01 µM [rising, full curve]
7 | CC1CCCCN1C(=O)c1cc2nc(-c3ccccc3)cc(-c3ccccc3)n2n1 (centres undefined) | – | 22.4 µM [rising, single point]
8 | CCOC(=O)c1c(C)[nH]c(C(=O)CSc2nc(C)cc(C)n2)c1C | 31.6 µM [rising, single point] | 31.6 µM [rising, single point]
9 | Cc1cc(-c2csc(NC(=O)c3ccc(C#N)cc3)n2)c(C)n1Cc1ccccc1 | 14.1 µM [rising, single point] | 12.6 µM [rising, partial curve]
10 | CN(C)C(=O)c1ccc(COc2ccccc2Br)o1 | – | 35.5 µM [rising, single point]
11 | O=C(/C=C/c1ccc(F)cc1)c1ccccc1Br | 20 µM [falling, single point] | 35.5 µM [falling, single point]
12 | Cc1cc(NS(=O)(=O)c2ccc(NC(=O)c3cc4ccccc4o3)cc2)no1 | – | 0.126 µM [falling, full curve, poor fit]
13 | Cc1cccc(NC(=O)C2c3ccccc3Oc3ccccc32)n1 | 25.1 µM [falling, single point] | –
14 | CC(C)(C=O)C1=CC(=O)c2ccccc2C1=O | – | 17.8 µM [rising, single point]
15 | CNc1ncnc2c1cnn2-c1ccc(C)c(C)c1 | 3.98 µM [rising, full curve, poor fit] | 0.355 µM [rising, full curve, poor fit]
16 | C(=N\n1cnnc1)/c1ccc(-c2ccccc2)cc1 | 12.6 µM [falling, partial curve] | 11.2 µM [falling, partial curve]
17 | Cc1sc2ncnc(NCC(c3ccco3)N(C)C)c2c1C (centres undefined) | 11.2 µM [rising, partial curve, poor fit] | 20 µM [rising, single point]
18 | CCn1c(C)c(P(c2ccccc2)c2ccccc2)[n+]2ccccc12 | – | 2.24 µM [rising, full curve, poor fit]
19 | C=CCNCCCCOc1ccc(OCc2ccccc2)cc1 | 15.8 µM [falling, single point] | –

Among those listed so far, two contain fluorine.
Row | SMILES | AC50 [1] | AC50 [2]
3 | CCOC(=O)N(C)c1ccc(C(O)(C(F)(F)F)C(F)(F)F)cc1 | 10 µM [rising, partial curve] | 4.47 µM [rising, partial curve, poor fit]
11 | O=C(/C=C/c1ccc(F)cc1)c1ccccc1Br | 20 µM [falling, single point] | 35.5 µM [falling, single point]

The list continues.

Row | SMILES | AC50 [1] | AC50 [2]
20 | COc1ccc(CCNc2nc(N3CCCCC3)nc(N3CCCCC3)n2)cc1OC | 17.8 µM [rising, single point] | 17.8 µM [rising, partial curve]
21 | Fc1ccc([C@@H]2CCNC[C@H]2COc2ccc3c(c2)OCO3)cc1 | 14.1 µM [falling, partial curve, poor fit] | 22.4 µM [falling, partial curve]
22 | CCOc1ccc(-c2nc(N)ncc2-c2ccc(OC)cc2)c(O)c1 | 7.08 µM [rising, full curve, poor fit] | 10 µM [rising, partial curve]
23 | CO/N=C/C(=N\Nc1ccc(OC)cc1)C(=O)c1ccc(F)cc1 | 12.6 µM [falling, partial curve] | 22.4 µM [falling, partial curve, poor fit]
24 | CCOC(=O)c1c(C)[nH]c(C)c1C(=O)COC(=O)c1cc2ccccc2cc1OC | – | 11.2 µM [rising, single point]
25 | CCNS(=O)(=O)c1ccc(CCC(N)=O)cc1 | 0.316 µM [rising, partial curve] | –
26 | C=CCOC(=O)C1=C(C)NC(SCC)=C(C#N)C1c1ccc(Cl)cc1 (centres undefined) | 10 µM [falling, partial curve] | 35.5 µM [falling, single point]
27 | CN(C/C=C/C#CC(C)(C)C)Cc1cccc2ccccc12 | – | 0.0158 µM [falling, full curve, poor fit]
28 | Oc1ccc(-c2n[nH]c(=S)n2-c2ccc3c(c2)OCCO3)c(O)c1 | – | 3.98 µM [rising, full curve]
29 | OC(CN1C2=NCCCN2c2ccccc21)c1ccc2c(c1)OCO2 (centres undefined) | – | 7.08 µM [rising, partial curve]
30 | CCCOc1cccc(C(=O)Nc2cccc3cccnc23)c1 | 35.5 µM [falling, single point] | –
31 | CCC(C)(C)n1nnnc1CN1CCN(c2nc3ccc(C)cc3cc2C#N)CC1 | – | 20 µM [rising, single point]
32 | O=C(/C=C/c1ccccc1[N+](=O)[O-])c1ccccc1Br | – | 11.2 µM [rising, partial curve]
33 | Cc1occc1C(=O)NNC(=O)Nc1ccc(Cl)c(Cl)c1 | – | 12.6 µM [rising, partial curve]
34 | CC(C)OCCCNC(=O)c1ccc(CSc2nc3cccnc3n2Cc2ccccc2)cc1 | 0.398 µM [falling, full curve, poor fit] | –
35 | CC(C)(c1ccccc1)c1ccc(OCCn2cnc3ccccc3c2=O)cc1 | 10 µM [rising, single point] | 31.6 µM [rising, single point]
36 | O=c1[nH]cnc2c1ncn2[C@H]1CC[C@@H](CO)O1 | 0.0398 µM [falling, full curve, poor fit] | 12.6 µM [falling, single point]
37 | CC(=O)N1CCN(c2ccc(NCc3ccc(C(C)C)cc3)cc2)CC1 | – | 17.8 µM [rising, partial curve, poor fit]
38 | COc1cc2[nH]c(=S)nc(NCCC(C)C)c2cc1OC | 0.00447 µM [falling, full curve, poor fit] | –

Row | SMILES | AC50 [1] | AC50 [2]
39 | COCCCn1c(C)csc1=Nc1cccnc1 | 35.5 µM [rising, single point] | –
40 | O=C(CCC(=O)N1CC2CCCN2c2ccccc21)NCc1ccc(Cl)cc1 (centres undefined) | – | 0.00316 µM [falling, full curve, poor fit]
41 | CC(C)Sc1ccc([N+](=O)[O-])cc1C(=O)Nc1ccncc1 | 11.2 µM [falling, partial curve, poor fit] | –
42 | COc1ccc2cnn(-c3ccccc3C)c(=O)c2c1OC | – | 35.5 µM [rising, single point]
43 | COc1ccccc1-c1cc(C(=O)N2CCN(c3ccccc3OC)CC2)no1 | 35.5 µM [falling, single point] | 22.4 µM [falling, single point]
44 | CCOC(=O)N1CCN(C(=S)Nc2ccccc2C)CC1 | – | 12.6 µM [rising, partial curve, poor fit]
45 | CCCC(C)NC(=O)c1cccc(Oc2ccccc2)c1 (centres undefined) | – | 7.94 µM [rising, full curve, poor fit]
46 | CC(=O)C1=C(O)C(=O)N(c2nccs2)C1c1ccc(F)cc1 (centres undefined) | 31.6 µM [rising, single point] | 35.5 µM [rising, single point]
47 | FC(F)(F)C1=CC(c2ccc(Cl)cc2)=NCCN1 | 2.51 µM [rising, full curve, poor fit] | 2.82 µM [rising, single point]
48 | COc1ccc(-c2noc(N3CCC(C(=O)N4CCN(c5cccc(C)c5C)CC4)CC3)n2)cc1 | 11.2 µM [falling, partial curve] | –
49 | CC(OC(=O)c1ccccc1Nc1ccc(SC(F)F)cc1)C(N)=O (centres undefined) | 10 µM [rising, partial curve, poor fit] | –
50 | COc1cc([N+](=O)[O-])ccc1NC(=O)COC(=O)c1n[nH]c2ccccc12 | 10 µM [rising, partial curve] | 10 µM [rising, partial curve]
51 | COc1ccccc1CNc1ncnc2ccc(-c3ccc(C(=O)N(C)C)cc3)cc12 | 22.4 µM [falling, partial curve, poor fit] | –
52 | Cn1c(NCc2ccccc2)nc2c1c(=O)n(Cc1ccc(Br)cc1)c(=O)n2C | – | 25.1 µM [rising, single point]
53 | CCOC(=O)N1CCC(NS(=O)(=O)c2ccc3c(c2)CCN3C(C)=O)CC1 | – | 11.2 µM [rising, partial curve]
54 | O=C(Nc1sc2c(c1-c1nc3ccccc3[nH]1)CCCC2)C1CC1 | 3.98 µM [rising, single point] | –
55 | N/C(=N\OC(=O)Cc1ccc(Cl)cc1)c1ccncc1 | – | 10 µM [rising, partial curve, poor fit]
56 | O=C(NCc1cccs1)c1ccc(CSc2nc3cccnc3n2Cc2ccccc2F)cc1 | 35.5 µM [falling, partial curve] | 28.2 µM [falling, partial curve]
57 | CCCCOc1ccccc1CC1C(=O)Nc2ccc(Br)cc21 (centres undefined) | 35.5 µM [falling, single point] | 35.5 µM [falling, partial curve]
